Measured values as given in patent US8252764B2, “Compositions and methods of use of targeting peptides against placenta and adipose tissues” (priority 2000, dated 2012).

Each sequence was assayed on SK-RC-49/APA cells (assay: Cell panning of CX3CX3CX3C phage library on SK-RC-49/APA cells (insert frequency)). Conditions: share of phage inserts, round 3.
Type: cell-based

Sequence | Round 3 (%)
CYNLCIRECESICGADGACWTWCADGCSRSC | 100

Same assay, conditions: share of randomly selected phage inserts, round 2

Sequence | Round 2 (%)
CAVACWADCQLGC | 5/— %
CGTGCAVECEVVC | 5/— %
CLGQCASICVNDC | 5/— %
CPKVCPRECESNC | 5/— %
CSGLCTVQCLEGC | 5/— %
CSMMCLEGCDDWC | 5/— %
CYNLCIRECESICGADGACWTWCADGCSRSC | 50%
